The source of these data is patent US3985740A, “7-[D-(α-amino-α-phenyl-, 2-thienyl- and 3-thienylacetamido)]-3-(5-methylthiazol-2-yl)carbonylthiomethyl-3-cephem -4-carboxylic acids” (Bristol-Myers Company, priority 1974, dated 1976).

This data set is described as follows: Blood levels in the mouse after oral administration. In kind it is in vivo. Particulars: 100 mg/kg, 100 mgm./kg., read-out: Blood Level. Here is the method: Blood levels in the mouse after oral administration were
determined with the following results:
Blood Level in mcg./ml.
Hrs. after adminis- tration.

Molecules are shown by their SMILES.

Turning to `CC1=C(C(=O)O)N2C(=O)[C@@H](NC(=O)[C@H](N)c3ccccc3)[C@H]2SC1` [cephalexin, reference compound], where the note is “0.5 hrs. after administration”, the concentration at 0.5 h was 44600 ng/mL. For the same compound, the concentration at 1 h (1 hr. after administration) was 23400 ng/mL. The concentration at 2 h (2 hrs. after administration) turned out to be 6100 ng/mL. Moreover, under “3.5 hrs. after administration”, the concentration at 3.5 h was found to be 1700 ng/mL.
